PubChem BioAssay AID1259301 – Sanger Institute, 2017

Screen: 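Synthetic lethal pairings of kinase siRNAs with targeted drugs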 (secondary rescreen of primary hits using four separate siRNAs per gene)
Cells: LS180 human colorectal cancer cells
Knock-down reagent: single siRNA against human genes
Treatment: anchor drug BYL719 at 1 µM, cetuximab at 5 µg/ml or trametinib at 10 nM, each against a DMSO vehicle arm
Read-out: 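Replicate mean of viability versus control pool 2 (non-targeting), and for every anchor drug a synergy score assessed against the drug by itself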
Scale: synergy score with BYL719 and synergy score with cetuximab and synergy score with trametinib: higher = stronger synergistic (synthetic lethal) killing
Active means: 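Hit if synergy exceeds 0.10 with BYL719, cetuximab or trametinib, any single drug sufficing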
Meaning of the calls: active = synergy with at least one drug; inactive = no synergy with any drug
Here is an unselected part of 160 deposited reagents. Of all reagents, 67 (42%) got an active call. 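Calls rest on synergy in any drug arm, not on siRNA-alone viability; rescreen tested four distinct siRNAs for each gene.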 Reagents against one gene are numbered here. Not all columns of the deposit are shown. Not stated in the record: the amount of reagent, the time to read-out.

HSPB8 #1 gave synergy score with BYL719 = -0.0715; synergy score with cetuximab 0.0938; synergy score with trametinib 0.115; active.
For HSPB8 #2, the values are synergy score with BYL719 = -0.209; synergy score with cetuximab -0.164; synergy score with trametinib -0.0557; inactive.
With knock-down of HSPB8 #3 the results were synergy score with BYL719 = -0.305; synergy score with cetuximab 0.0327; synergy score with trametinib 0.214; active.
Against HSPB8 #4 the deposit lists synergy score with BYL719 = 0.0747; synergy score with cetuximab 0.118; synergy score with trametinib 0.167; active.

Records above called active (3):
HSPB8 #1 — synergy score with BYL719 = -0.0715; synergy score with cetuximab = 0.0938; synergy score with trametinib = 0.115; activity call = active
HSPB8 #3 — synergy score with BYL719 = -0.305; synergy score with cetuximab = 0.0327; synergy score with trametinib = 0.214; activity call = active
HSPB8 #4 — synergy score with BYL719 = 0.0747; synergy score with cetuximab = 0.118; synergy score with trametinib = 0.167; activity call = active

More entries follow.
Knock-down of PINK1 #1 came out at: synergy score with BYL719 = -0.265; synergy score with cetuximab -0.0953; synergy score with trametinib 0.101; active.
For PINK1 #2, the values are synergy score with BYL719 = -0.0521; synergy score with cetuximab 0.00724; synergy score with trametinib 0.103; active.
For PINK1 #3, the entry reads synergy score with BYL719 = -0.0134; synergy score with cetuximab 0.0633; synergy score with trametinib 0.135; active.
Against PINK1 #4 the deposit lists synergy score with BYL719 = -0.011; synergy score with cetuximab -0.0708; synergy score with trametinib 0.291; active.
GUCY2D #1 gave synergy score with BYL719 = -0.157; synergy score with cetuximab -0.2; synergy score with trametinib -0.0843; inactive.
GUCY2D #2 scored synergy score with BYL719 = -0.0477; synergy score with cetuximab 0.143; synergy score with trametinib 0.19; active.
With knock-down of GUCY2D #3, the record shows synergy score with BYL719 = -0.0869; synergy score with cetuximab -0.175; synergy score with trametinib 0.137; active.
For GUCY2D #4, the entry reads synergy score with BYL719 = -0.167; synergy score with cetuximab -0.115; synergy score with trametinib 0.103; active.
